Test results as given in doi:10.1101/2024.07.03.601791.
No constants are given. Whether binding was seen depends on the method and setting. A result given as binding can be weak or reduced; the word gives no strength.

Target: T1, PR20 modified with a dansyl group at the N-terminus (Dnc-PR20)
T1 sequence (peptide, dansyl group at the N-terminus): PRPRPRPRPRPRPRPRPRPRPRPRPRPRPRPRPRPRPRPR
Assay: other fluorescence titration

CeKapβ2 (imb-2, Kapβ2 homolog in C. elegans)
binding: binds
